Reference: the supplement of paper PMC10849652
This is one part of the list.

Protein sequences, listed by entry. Tags and fused reporters are not part of them. Lines headed by an entry give the natural chain unless they say otherwise; changes in a name come on top.
UniProt P23921: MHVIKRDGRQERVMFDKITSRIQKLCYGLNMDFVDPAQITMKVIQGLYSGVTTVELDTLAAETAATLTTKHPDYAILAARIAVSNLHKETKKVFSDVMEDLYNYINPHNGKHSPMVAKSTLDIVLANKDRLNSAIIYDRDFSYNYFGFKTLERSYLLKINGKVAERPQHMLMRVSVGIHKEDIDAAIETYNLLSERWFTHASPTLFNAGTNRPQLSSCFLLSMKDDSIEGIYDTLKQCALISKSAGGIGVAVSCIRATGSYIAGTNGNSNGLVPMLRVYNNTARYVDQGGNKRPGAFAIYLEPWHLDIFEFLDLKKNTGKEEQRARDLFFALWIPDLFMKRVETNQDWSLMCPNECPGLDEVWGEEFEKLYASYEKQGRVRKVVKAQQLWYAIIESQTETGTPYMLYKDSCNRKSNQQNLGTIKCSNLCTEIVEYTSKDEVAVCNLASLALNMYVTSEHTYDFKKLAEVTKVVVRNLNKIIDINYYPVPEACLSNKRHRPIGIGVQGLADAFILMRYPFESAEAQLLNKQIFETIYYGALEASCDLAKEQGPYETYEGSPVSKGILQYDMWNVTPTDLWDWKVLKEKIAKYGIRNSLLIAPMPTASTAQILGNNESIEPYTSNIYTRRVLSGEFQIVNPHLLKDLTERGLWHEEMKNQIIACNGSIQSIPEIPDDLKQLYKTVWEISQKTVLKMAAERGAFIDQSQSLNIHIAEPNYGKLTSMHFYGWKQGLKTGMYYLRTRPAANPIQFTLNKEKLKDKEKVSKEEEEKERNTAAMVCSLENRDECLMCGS
UniProt P78346: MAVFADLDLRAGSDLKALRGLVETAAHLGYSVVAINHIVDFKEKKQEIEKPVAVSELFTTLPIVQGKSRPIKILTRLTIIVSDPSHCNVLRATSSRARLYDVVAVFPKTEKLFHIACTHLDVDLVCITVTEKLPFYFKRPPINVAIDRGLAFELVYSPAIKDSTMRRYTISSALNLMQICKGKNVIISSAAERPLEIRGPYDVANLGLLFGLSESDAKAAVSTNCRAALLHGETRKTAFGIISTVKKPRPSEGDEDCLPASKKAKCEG
UniProt Q99942: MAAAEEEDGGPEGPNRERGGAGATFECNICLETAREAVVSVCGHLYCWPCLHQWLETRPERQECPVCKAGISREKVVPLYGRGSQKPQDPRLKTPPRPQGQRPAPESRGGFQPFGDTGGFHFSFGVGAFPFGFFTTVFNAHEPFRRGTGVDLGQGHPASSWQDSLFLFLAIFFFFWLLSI
UniProt P10301: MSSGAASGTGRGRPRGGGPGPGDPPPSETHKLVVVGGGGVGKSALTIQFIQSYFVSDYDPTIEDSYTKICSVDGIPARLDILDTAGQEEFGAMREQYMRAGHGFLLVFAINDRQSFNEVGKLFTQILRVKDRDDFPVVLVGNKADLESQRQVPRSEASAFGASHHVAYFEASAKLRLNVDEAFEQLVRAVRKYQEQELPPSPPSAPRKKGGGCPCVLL
UniProt O60942: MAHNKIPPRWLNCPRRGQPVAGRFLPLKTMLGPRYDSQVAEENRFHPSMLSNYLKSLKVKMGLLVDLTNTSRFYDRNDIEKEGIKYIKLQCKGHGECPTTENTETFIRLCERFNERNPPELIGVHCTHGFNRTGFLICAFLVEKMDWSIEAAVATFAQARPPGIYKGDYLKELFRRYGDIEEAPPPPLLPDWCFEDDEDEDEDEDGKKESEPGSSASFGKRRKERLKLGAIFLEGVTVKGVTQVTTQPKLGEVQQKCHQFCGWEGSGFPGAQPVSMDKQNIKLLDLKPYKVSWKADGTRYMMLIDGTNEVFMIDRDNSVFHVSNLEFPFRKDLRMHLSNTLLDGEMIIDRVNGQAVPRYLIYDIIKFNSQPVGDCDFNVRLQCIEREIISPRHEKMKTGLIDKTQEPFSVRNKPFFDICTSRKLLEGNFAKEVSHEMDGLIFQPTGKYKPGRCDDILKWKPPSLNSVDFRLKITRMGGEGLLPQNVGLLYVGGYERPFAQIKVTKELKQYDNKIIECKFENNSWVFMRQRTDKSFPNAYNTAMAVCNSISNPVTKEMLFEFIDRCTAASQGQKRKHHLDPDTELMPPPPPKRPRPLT

Assays:
Assay in all cases: log2 fold change, soluble protein after heating vs DMSO (PISA); higher = thermal stabilisation; K562 cells, 10 uM, 30 min; active = over 0.2 and 3.5 SD of the protein, either way, in both replicates (recomputed)
[1] = compound: COC1=CC=C(C=C1)CN2C=CC3=C2C=C(C=C3)C(=O)NO
Procedure, shortened: (§1)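 K562 cells at 2×10^6 cells/mL were treated for 30 min with 10 μM compound, and aliquots were heated for 3 min over 48°C-58°C before pooling. Extraction used PBS with 0.5% NP-40 at 4°C, and soluble protein was the supernatant after 21,000xg for 90 min, measured by TMTpro 16plex LC-MS/MS with channel sums equalised. Thermal stability values, relative to control samples and from duplicates, are log2 fold changes.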

filanesib = compound: CON(C)C(=O)N1N=C(c2cc(F)ccc2F)S[C@@]1(CCCN)c1ccccc1 [filanesib]
Procedure, shortened: as §1

zotarolimus = compound: CO[C@H]1C[C@@H]2CC[C@@H](C)[C@@](O)(O2)C(=O)C(=O)N2CCCC[C@H]2C(=O)O[C@H]([C@H](C)C[C@@H]2CC[C@H](n3cnnn3)[C@H](OC)C2)CC(=O)[C@H](C)/C=C(\C)[C@@H](O)[C@@H](OC)C(=O)[C@H](C)C[C@H](C)/C=C/C=C/C=C/1C [zotarolimus]
Procedure, shortened: as §1

idasanutlin = compound: COc1cc(C(=O)O)ccc1NC(=O)[C@@H]1N[C@@H](CC(C)(C)C)[C@](C#N)(c2ccc(Cl)cc2F)[C@H]1c1cccc(Cl)c1F [idasanutlin]
Procedure, shortened: as §1

alisertib = compound: COc1cc(Nc2ncc3c(n2)-c2ccc(Cl)cc2C(c2c(F)cccc2OC)=NC3)ccc1C(=O)O [alisertib]
Procedure, shortened: as §1

[2] = compound: COc1cc2nc(-c3cc(F)ccc3O)nc(N[C@@H]3CNC[C@H]3C(C)(C)O)c2cc1OC
Procedure, shortened: as §1

gefitinib = compound: COc1cc2ncnc(Nc3ccc(F)c(Cl)c3)c2cc1OCCCN1CCOCC1 [gefitinib]
Procedure, shortened: as §1

[3] = compound: COc1cccc2cc(-c3nc([C@H]4CC[C@H](C(=O)O)CC4)n4ncnc(N)c34)[nH]c12
Procedure, shortened: as §1

lapatinib = compound: CS(=O)(=O)CCNCc1ccc(-c2ccc3ncnc(Nc4ccc(OCc5cccc(F)c5)c(Cl)c4)c3c2)o1 [lapatinib]
Procedure, shortened: as §1

pictilisib = compound: CS(=O)(=O)N1CCN(Cc2cc3nc(-c4cccc5[nH]ncc45)nc(N4CCOCC4)c3s2)CC1 [pictilisib]
Procedure, shortened: as §1

Measured: log2 fold change

RRM1 (UniProt P23921)
inactive: [1] 0.022 | filanesib -0.09 | zotarolimus -0.041 | idasanutlin -0.022 | alisertib 0.006 | [2] -0.02 | gefitinib -0.043 | [3] 0.062 | lapatinib -0.009 | pictilisib 0.06

RPS28 (UniProt P62857)
inactive: [1] -0.035 | filanesib 0.108 | zotarolimus -0.16 | idasanutlin 0.096 | alisertib -0.049 | [2] -0.071 | gefitinib 0.032 | [3] -0.008 | lapatinib -0.002 | pictilisib -0.027

RPL29 (UniProt P47914)
inactive: [1] -0.088 | filanesib 0.598 | zotarolimus 0.057 | idasanutlin 0.327 | alisertib -0.159 | [2] -0.265 | gefitinib -0.051 | [3] -0.292 | lapatinib 0.256 | pictilisib -0.153

RPP30 isoform 2 (UniProt P78346)
inactive: [1] 0.012 | filanesib -0.042 | zotarolimus -0.032 | idasanutlin 0.037 | alisertib -0.115 | [2] -0.073 | gefitinib 0.012 | [3] 0.007 | lapatinib 0.053 | pictilisib -0.083

RPL23A (UniProt P62750)
inactive: [1] -0.032 | filanesib 0.408 | zotarolimus 0.033 | idasanutlin 0.184 | alisertib -0.09 | [2] -0.145 | gefitinib -0.056 | [3] -0.256 | lapatinib 0.129 | pictilisib -0.192

RNF5 (UniProt Q99942)
inactive: [1] 0.275 | filanesib -0.181 | zotarolimus -0.026 | idasanutlin -0.081 | alisertib 0.005 | [2] -0.279 | gefitinib -0.016 | [3] -0.006 | lapatinib -0.06 | pictilisib -0.039

RPS18 (UniProt P62269)
inactive: [1] -0.157 | filanesib 0.118 | zotarolimus 0.012 | idasanutlin 0.046 | alisertib -0.015 | [2] -0.021 | gefitinib -0.013 | [3] -0.109 | lapatinib 0.065 | pictilisib -0.107

RPS15A (UniProt P62244)
inactive: [1] -0.074 | filanesib 0.332 | zotarolimus -0.021 | idasanutlin 0.174 | alisertib -0.075 | [2] -0.101 | gefitinib -0.062 | [3] -0.252 | lapatinib 0.179 | pictilisib -0.143

RPS10 (UniProt P46783)
inactive: [1] -0.048 | filanesib 0.14 | zotarolimus -0.036 | idasanutlin 0.058 | alisertib -0.104 | [2] -0.005 | gefitinib -0.004 | [3] -0.15 | lapatinib 0.112 | pictilisib -0.151

RPL14 (UniProt P50914)
inactive: [1] -0.135 | filanesib 0.744 | zotarolimus 0.154 | idasanutlin 0.349 | alisertib -0.181 | [2] -0.154 | gefitinib -0.035 | [3] -0.475 | lapatinib 0.367 | pictilisib -0.167

RRAS (UniProt P10301)
inactive: [1] -0.019 | filanesib 0.038 | zotarolimus -0.056 | idasanutlin -0.039 | alisertib -0.071 | [2] 0.063 | gefitinib 0.024 | [3] 0.047 | lapatinib -0.029 | pictilisib -0.009

RPL19 (UniProt P84098)
inactive: [1] -0.099 | filanesib 0.573 | zotarolimus 0.066 | idasanutlin 0.203 | alisertib -0.153 | [2] -0.103 | gefitinib -0.034 | [3] -0.255 | lapatinib 0.172 | pictilisib -0.067

RPL38 (UniProt P63173)
inactive: [1] -0.109 | filanesib 0 | zotarolimus -0.007 | idasanutlin 0.055 | alisertib -0.064 | [2] 0.061 | gefitinib -0.074 | [3] -0.171 | lapatinib 0.05 | pictilisib -0.053

Copied from the entries so far (3 entries):
RNF5 (UniProt Q99942)
inactive: [1] 0.275 | filanesib -0.181 | zotarolimus -0.026 | idasanutlin -0.081 | alisertib 0.005 | [2] -0.279 | gefitinib -0.016 | [3] -0.006 | lapatinib -0.06 | pictilisib -0.039

RPS18 (UniProt P62269)
inactive: [1] -0.157 | filanesib 0.118 | zotarolimus 0.012 | idasanutlin 0.046 | alisertib -0.015 | [2] -0.021 | gefitinib -0.013 | [3] -0.109 | lapatinib 0.065 | pictilisib -0.107

RPS15A (UniProt P62244)
inactive: [1] -0.074 | filanesib 0.332 | zotarolimus -0.021 | idasanutlin 0.174 | alisertib -0.075 | [2] -0.101 | gefitinib -0.062 | [3] -0.252 | lapatinib 0.179 | pictilisib -0.143

(next part)

RPS27 (UniProt P42677)
inactive: [1] -0.036 | filanesib 0.076 | zotarolimus -0.031 | idasanutlin 0.107 | alisertib 0.044 | [2] 0.07 | gefitinib -0.061 | [3] -0.097 | lapatinib -0.027 | pictilisib -0.065

RNGTT (UniProt O60942)
inactive: [1] -0.019 | filanesib -0.077 | zotarolimus -0.012 | idasanutlin -0.114 | alisertib -0.072 | [2] 0 | gefitinib 0.024 | [3] 0.062 | lapatinib 0.045 | pictilisib 0.17
